Test results taken from publication PMC11073699, “Odorant receptors for floral- and plant-derived volatiles in the yellow fever mosquito, Aedes aegypti (Diptera: Culicidae)” (PLOS ONE, 2024).
Several values for one entry are separate records, joined by “and”; a condition that tells them apart may be missing. Identical values can stand only once. Further values from the same series stand in other lists.

Biological target: T1, AaegOR71 (Aedes aegypti, UniProt A0A3S7SHD4)
T1 sequence (A0A3S7SHD4 1-415): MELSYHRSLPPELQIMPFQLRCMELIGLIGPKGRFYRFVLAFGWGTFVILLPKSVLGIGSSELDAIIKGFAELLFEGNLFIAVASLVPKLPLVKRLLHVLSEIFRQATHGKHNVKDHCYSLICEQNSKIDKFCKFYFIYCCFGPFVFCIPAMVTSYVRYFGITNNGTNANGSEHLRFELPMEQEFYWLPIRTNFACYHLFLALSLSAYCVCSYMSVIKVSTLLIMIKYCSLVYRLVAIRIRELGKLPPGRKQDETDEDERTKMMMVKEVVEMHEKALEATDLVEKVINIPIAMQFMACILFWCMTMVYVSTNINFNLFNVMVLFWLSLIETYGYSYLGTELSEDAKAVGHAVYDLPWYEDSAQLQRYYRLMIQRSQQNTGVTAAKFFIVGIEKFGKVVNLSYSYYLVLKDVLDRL
T1 sequence (Q178U6 1-478 partner): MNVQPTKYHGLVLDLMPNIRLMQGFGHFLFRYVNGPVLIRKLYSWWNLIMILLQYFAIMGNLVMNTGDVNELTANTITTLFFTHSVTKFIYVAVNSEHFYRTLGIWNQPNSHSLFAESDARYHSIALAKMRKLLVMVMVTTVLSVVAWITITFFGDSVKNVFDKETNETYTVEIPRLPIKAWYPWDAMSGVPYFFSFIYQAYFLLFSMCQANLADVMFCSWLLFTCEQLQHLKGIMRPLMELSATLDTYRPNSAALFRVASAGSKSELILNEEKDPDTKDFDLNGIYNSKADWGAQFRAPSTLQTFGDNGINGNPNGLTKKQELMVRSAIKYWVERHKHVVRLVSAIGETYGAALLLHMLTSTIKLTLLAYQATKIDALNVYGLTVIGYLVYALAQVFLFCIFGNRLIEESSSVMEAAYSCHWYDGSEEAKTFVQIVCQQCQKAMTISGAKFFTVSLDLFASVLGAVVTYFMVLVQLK
Test: Two-electrode voltage clamp of Xenopus laevis oocytes expressing AaegOR71/Orco (blends, unitary compounds, concentration-response)
Type: cell-based
Details: second series (unlabelled), Oocytes 1-8 individually
Excerpt: The coding regions of ten AaegOR genes of interest (S3 File) and AaegOrco were synthesized by Twist Bioscience (San Francisco, CA, USA) and cloned into the pENTR plasmid. The Gateway LR directional cloning system (Invitrogen Corp., Carlsbad, CA, USA) was utilized to subclone AaegOR coding regions into the pSP64t-RFA oocyte expression plasmid. Plasmids were purified using the GeneJet Plasmid Miniprep Kit (ThermoFisher Scientific, Waltham, MA, USA). Purified plasmids were sequenced in both directions to confirm coding regions.
Chemical compounds (S6 File) used in the deorphanization of AaegORs were purchased from Acros Organics (Morris, NJ, USA), Alfa Aesar (Ward Hill, MA, USA), and ThermoFisher Scientific (Waltham, MA, USA) at the highest purity available. Compounds were stored as 1M stocks in 100% DMSO. Serial dilutions of each compound were prepared in 10% DMSO and blended by chemical class.
pSP64t-RFA: AaegOR clones were linearized using Xbal, and cRNAs were synthesized using the mMESSAGE mMACHINE ® SP6 kit (Life Technologies, Carlsbad, CA, USA). […] Induced currents were measured indirectly using the two-electrode voltage clamp technique (TEVC). […] Data were analyzed using GraphPad Prism 8 (GraphPad Software Inc., La Jolla, CA, USA). […] Data for at least seven oocytes responding to each compound was analyzed (S7 File).

Compound: O=Cc1ccnc2ccccc12 [4-quinolinecarboxaldehyde, 4-Quinolinecarboxaldehyde]
- Raw Data (Response in nA) (1e-6 M): 100 nA and 370 nA and 110 nA and 50 nA
- Raw Data (Response in nA) (5e-6 M): 200 nA and 360 nA and 380 nA and 180 nA and 150 nA (2×) and 480 nA and 100 nA
